PubChem BioAssay AID1259254, NCATS, 2017
The whole screen tested about 59,000 reagents; this is a random part of them. About 1,550 of them (2.6%) were called active. 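G2 share is only a proxy for re-replication; each gene was hit by three separate siRNAs, and active genes were retested.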 The raw values are shown without normalisation. A number with no mark means an inactive call. Reagents against one gene are numbered here. Not stated in the record: the amount of reagent.

Assay: 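Gene knock-downs that lead to re-replication, shown by excess G2 DNA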 (primary screen)
System: human HCT116 colorectal cancer cells
Reagents: single siRNA against human genes
Timing: 3 days
Measured: 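Nuclei stained with Hoechst and imaged; cell-cycle phase assigned by DNA content; G2 share scaled per plate, non-targeting siRNA 0%, GMNN siRNA 100%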
Direction: G2 robust z-score and G2 cells, % of GMNN control: higher = more G2 cells, more excess DNA replication; raw share of cells in G2: higher = larger share of cells with G2 DNA content
Rule for the call: 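Active siRNAs have a G2 robust z of 5 or more median absolute deviations over the median, which in these data means about 38% or higher of GMNN control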

The first 2 entries as a preview:
no.	gene knocked down	reagent	G2 robust z-score	G2 cells, % of GMNN control	raw share of cells in G2 (%)
1	CALML6 (calmodulin like 6)	1	0.436	6.04	5.17
2	CALML6 (calmodulin like 6)	2	0.702	7.91	5.91

The list itself, from the first entry:
no.	gene knocked down	reagent	G2 robust z-score	G2 cells, % of GMNN control	raw share of cells in G2 (%)
1	CALML6 (calmodulin like 6)	1	0.436	6.04	5.17
2	CALML6 (calmodulin like 6)	2	0.702	7.91	5.91
3	CALML6 (calmodulin like 6)	3	-1.06	-4.49	1.95
4	FANK1 (fibronectin type III and ankyrin repeat domains 1)	1	0.708	7.95	7.46
5	FANK1 (fibronectin type III and ankyrin repeat domains 1)	2	-0.435	-0.0924	2.97
6	FANK1 (fibronectin type III and ankyrin repeat domains 1)	3	0.276	4.91	4.48
7	ARHGAP20 (Rho GTPase activating protein 20)	1	-0.361	0.429	4.52
8	ARHGAP20 (Rho GTPase activating protein 20)	2	-0.948	-3.7	2.69
9	ARHGAP20 (Rho GTPase activating protein 20)	3	-1.08	-4.63	1.56
10	NDUFA5 (NADH:ubiquinone oxidoreductase subunit A5)	1	-0.542	-0.849	2.92
11	NDUFA5 (NADH:ubiquinone oxidoreductase subunit A5)	2	-0.804	-2.69	4.32
12	NDUFA5 (NADH:ubiquinone oxidoreductase subunit A5)	3	-0.853	-3.03	4.27
13	ZRANB3 (zinc finger RANBP2-type containing 3)	1	-0.0291	2.76	5.81
14	ZRANB3 (zinc finger RANBP2-type containing 3)	2	0.0716	3.47	5.45
15	ZRANB3 (zinc finger RANBP2-type containing 3)	3	0.00948	3.03	6.69
16	PTPRU (protein tyrosine phosphatase receptor type U)	1	1.83	15.9	9.95
17	PTPRU (protein tyrosine phosphatase receptor type U)	2	-0.62	-1.4	3.88
18	PTPRU (protein tyrosine phosphatase receptor type U)	3	-1	-4.08	2.27
19	ZNF347 (zinc finger protein 347)	1	0.278	4.92	4.53
20	ZNF347 (zinc finger protein 347)	2	0.672	7.7	9.39
21	ZNF347 (zinc finger protein 347)	3	-0.618	-1.38	3.2
22	SRSF8CP (serine and arginine rich splicing factor 8C, pseudogene)	1	1.8	15.6	9.66
23	SRSF8CP (serine and arginine rich splicing factor 8C, pseudogene)	2	0.324	5.25	5.41
24	SRSF8CP (serine and arginine rich splicing factor 8C, pseudogene)	3	1.6	14.2	7.95
25	PRMT2IP (PRMT2 interacting protein)	1	0.116	3.79	5.84
26	PRMT2IP (PRMT2 interacting protein)	2	-0.961	-3.79	2.65
27	PRMT2IP (PRMT2 interacting protein)	3	0.119	3.8	4.23
28	SUMO1 (small ubiquitin like modifier 1)	1	-0.00635	2.92	5.38
29	SUMO1 (small ubiquitin like modifier 1)	2	5.17 (active)	39.3	16.8
30	SUMO1 (small ubiquitin like modifier 1)	3	1.79	15.5	9.34
